Results from one PubChem assay

The results are deposited in PubChem (AID1159506; NCATS, 2015).

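Luminescence from an EWS-FLI1 target-promoter (NR0B1) reporter, set against a CMV-promoter reporter, two days after silencing single genes in TC32 Ewing sarcoma cells. Each siRNA was applied at 20 nM. A z-score of the log NR0B1-over-CMV signal, less the median of siRNAs with the same seed; more negative means a stronger specific loss of the NR0B1 reporter.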

This is part of the screen; most of the strongest results are not listed here. Sequences are the guide (antisense) strand, without overhang.

Sequence,gene,seed-corrected z-score
UUCAUGACAACGUUGGCCA,RHBDL1,-0.3075
UUUGGUGCCCACAAAGGCC,PLXNA4,-1.128
UACCUUUGCUCUAUCAGAC,FAM98B,-0.4173
AAUUUUCCCAGUUAUCAAC,NXPH1,0.771
AUAUGGAUGGAGAAGGUAC,CSPG4P5,0.9969
AAUUUGAUCAUGCUGAAGG,ZNF260,-1.136
AAUCUUGCUAGGAUCCAUG,PRSS54,-1.474
UCUUUAUUUAGCCCUGCUC,AANAT,0.09839
UUUGUAAGCGCAGUCCGCG,ISLR2,0.9065
UUAUCCUCUGGAGAAGUUC,NGLY1,-0.2096
UUCGCUCCACAUAAAAUGC,ZCCHC14,0.6089
UUACCCACCACGGUCGAGU,GJA4,-0.4988
UCUGUUGACAAGUAGUUGG,CHDH,0.2199
UUAACUGACAUUCCGAUUC,TCEA1,0.8953
AAUGGUCUCAUUGUUGAUG,AOC3,-0.6823
UCAGCGACGAGAAGUAAGU,C1orf198,-0.002165
UGAAGUUCCAACUUGUGUG,MAMSTR,-0.04776
UACUUCUUCCAGUAGAUCC,MTA2,-0.2128
UCUCUUAUGUCUUCGUUGC,STX18,0.8279
CAUCAAAUACAGCUCCUGC,NUDT6,0.7029
UCCGUUUCCGGAGAAUUGC,TMEM135,-0.3239
AAUUGUAGCAUUUCCACCG,OR10V1,0.4552
UAAGGUUAUAGAUAGCUGG,ATP6V0C,-0.5433
UGUCUGUAUGUUGCUUUCC,FABP6,-0.8991
AGGUGAAACAUUUCGGUUG,LOC729275,-0.1665
UCGUCGAUCAGGAAGAUGG,CDH22,0.4854
AUCGCUGUAGUCAUGAUAC,DPT,-0.4715
AUAACAAUCAUGUUAUUCC,UGT1A6,0.5801
AUCACUUGGACUUUGUUGC,PPBPP1,0.001835
UCUUGAAUCACCAUGAGAU,CLECL1,0.9816
AAAGAUCACAAAACCAACA,RBPMS2,0.2139
UUCUUGAACAGGGUCCCGG,NAGS,0.7897
UAGGUAUAAAGUAUGGAUC,DCLRE1B,-0.2855
UCAUGUAAUGAACCCAGCC,CKS2,0.1295
UUUAGUCCAAGUGUCCUUG,TRY2P,0.08357
UAUGCUUGAAAUGUAGGAG,ALG8,0.01569
UUUGCGCAGAUGAAGAGGA,TMEM200C,0.3022
UACAGAUUCACAGUGAGCA,LOC401677,-0.428
UAGCAUACUCUAAUUCUCC,PITHD1,-0.9059
UACAUGACCACACUGACUG,MYEF2,-0.1312
UUGGGCAGCAUUUCAAACC,LRRN2,0.6873
UUCCUGAUAACUUCUAAAG,CAMK2N1,0.8388
UAUCUAGUAGUUCCUUAGC,STK33,0.7765
AAAGGGAUCGGCGUAGCAG,TUT1,-0.8624
UACGGGAACCCAUCUUCUC,LOC728667,-1.022
UGAUGGAAAACGUCUGGCG,AZU1,-0.4504
ACACUAUUCCGUGUCAGUC,ZNF286A,0.2151
UUUAUCAUCCCUCUUAAGG,SAFB,0.2403
UGUGAUAUGGGCAUUCUGG,RS1,0.9023
UUCGUCAUCAAAGCUACGG,AKAP8,-0.6154
UGCUGGUGCAAAACUCUGC,VSTM2L,-0.2454
UAGGUACUCAGAGUCCUCC,MTCL1,-1.059
UUCCGUACAGCAAUCGGCU,ARMC5,-0.5097
UCAGUAAGUUGAGUUGAUC,ZNF561,-0.7308
UUCUGACGCAGAUAUUUCA,GLYATL1,0.03723
AAGGACUUAAGCGUGCUCC,WDR34,-0.7579
UGUGAAACCACGUUAGAUC,B3GALT6,-0.28
AGCAAUACAAGCCCGAUUG,DSTN,0.1151
UUUGCAUUUAGUCUCUUAG,SUCLG2,-0.4405
UUAGAUUUGCUAUGUAAGC,ST8SIA2,-0.7164
UCUUUAAAAAGCUGCAAGC,PIGC,0.4326
UUUUCCAAACUCGACAUGC,SAR1AP3,0.5012
UUUCAUAAUAUGCAUCUGC,IMPA1,-0.5559
AGUUCCUUCAGAUAGAACC,FAM226B,1.342
UUCCGCGUUGCAAAGGUGG,TPSD1,-0.2831
UCUGAGGCAACGGUUGUCC,DLC1,0.7117
UACACGAUUUCGAUGUUCC,DDX6,-0.7562
UGCGCUGUUGCAGUUGUCC,LY6G6C,-0.2457
UUUGUCUUCAUGCCCUUCG,AMOTL1,-0.9462
UAUAGUGACCUUGCAAGUC,FAM26D,0.3465
UCUACCUCCACGGUCAACC,KRT18,-0.2268
UUCUUUUAUAGUAUGUUGC,TMEM154,-0.8884
UAUGCUUGCACAAUACUAU,TMEM254,0.2925

The first 5 entries again:

Sequence,gene,seed-corrected z-score
UUCAUGACAACGUUGGCCA,RHBDL1,-0.3075
UUUGGUGCCCACAAAGGCC,PLXNA4,-1.128
UACCUUUGCUCUAUCAGAC,FAM98B,-0.4173
AAUUUUCCCAGUUAUCAAC,NXPH1,0.771
AUAUGGAUGGAGAAGGUAC,CSPG4P5,0.9969